Reference: paper PMC6294567, “The C-terminal D/E-rich domain of MBD3 is a putative Z-DNA mimic that competes for Zα DNA-binding activity” (Nucleic Acids Research, 2018)

Target: T1, MBD3 MBD domain (MBD3MBD) (Homo sapiens) (UniProt O95983)
T1 sequence (looked up): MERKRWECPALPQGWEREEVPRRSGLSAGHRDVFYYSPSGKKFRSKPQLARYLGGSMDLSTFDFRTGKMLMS
Assay: circular dichroism
Conditions: DNA kept in B-form; recombinant protein; residues 1-72; protein details: His6 removed by TEV

CGCGCGCGCGCG (double strand) [d(CG)6]
binding result: binds

Construct, isoform or probe ends are uncertain for at least one entry. At least one verdict was read from the data and is not stated in words by the source. Where a protein sequence is shown, tags need not be part of it.
